# Data: PubChem BioAssay AID743255 (National Center for Advancing Translational Sciences (NCATS), 2014)
# Protein sequences, listed by entry. Tags and fused reporters are not part of them. Lines headed by an entry give the natural chain unless they say otherwise; changes in a name come on top.
# UniProt O94782: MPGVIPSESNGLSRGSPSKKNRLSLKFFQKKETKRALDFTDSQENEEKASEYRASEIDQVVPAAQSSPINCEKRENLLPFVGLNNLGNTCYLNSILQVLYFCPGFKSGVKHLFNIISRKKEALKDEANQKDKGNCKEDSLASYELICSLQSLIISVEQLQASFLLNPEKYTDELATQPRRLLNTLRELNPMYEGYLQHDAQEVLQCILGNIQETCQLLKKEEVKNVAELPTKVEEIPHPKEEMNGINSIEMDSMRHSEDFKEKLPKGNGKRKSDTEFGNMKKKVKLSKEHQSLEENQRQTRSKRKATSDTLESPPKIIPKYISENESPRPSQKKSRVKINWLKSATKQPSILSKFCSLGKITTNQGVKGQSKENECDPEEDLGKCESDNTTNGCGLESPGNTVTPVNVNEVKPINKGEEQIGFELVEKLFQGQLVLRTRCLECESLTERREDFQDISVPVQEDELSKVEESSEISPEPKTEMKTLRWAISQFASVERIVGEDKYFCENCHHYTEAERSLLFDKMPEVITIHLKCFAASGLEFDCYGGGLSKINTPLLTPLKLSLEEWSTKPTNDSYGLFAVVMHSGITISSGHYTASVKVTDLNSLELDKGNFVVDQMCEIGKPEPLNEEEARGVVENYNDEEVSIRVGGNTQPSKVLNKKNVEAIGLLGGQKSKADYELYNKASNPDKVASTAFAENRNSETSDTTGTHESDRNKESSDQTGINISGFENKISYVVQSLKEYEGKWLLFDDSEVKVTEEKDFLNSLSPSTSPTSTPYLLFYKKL
# In all, about 390,000 compounds went through this assay and about 910 (0.23%) were called active. The shares of active, inactive and inconclusive entries below differ from those in the screen. The call rests on the fitted dose curve; in most records, active means well fitted inhibition curve with a large enough effect; inconclusive means small, poorly fitted or top-dose-only effect; inactive means no such curve, though single readings can be large or run the other way. Potencies beside an inconclusive call are fits to weak or partial responses and may not hold up.
# Target: Ubiquitin carboxyl-terminal hydrolase 1 (Homo sapiens) (UniProt O94782)
# Experiment: Inhibitors of USP1/UAF1: Primary Screen; further: nearly all actives have a fitted effect of over 60% in size
# Details: recombinant USP1/UAF1, Ub-Rhodamine cleavage fluorescence; series mostly up to 57.1 µM
# Method in brief: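 High-throughput fluorogenic screen: 1nM USP1/UAF1 complex, Ub-Rho substrate 150nM final, 50mM HEPES pH 7.8 with 0.5mM EDTA, 0.1 mg/ml BSA, 1mM TCEP and 0.01% Tween-20.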
# Potency means the concentration at half of the fitted maximal effect.
row,Structure (SMILES),Potency
1,CCN(C(=O)COC(=O)c1ccc([N+](=O)[O-])o1)C1CCCCC1,"inconclusive: 44.7 µM [inhibitor, partial curve]"
2,Cc1cc(C)cc(NC(=O)N2CCC(N3CCCCC3)CC2)c1,inactive
3,CCS(=O)(=O)Nc1cccc(C2=NN(S(=O)(=O)c3ccccc3)C(c3ccco3)C2)c1 (stereo unspecified),inactive
4,Cc1cc2cc(C)c(SCC(=O)NCc3ccco3)nc2cc1C,"inconclusive: 50.1 µM [inhibitor, partial curve, poor fit]"
5,COc1cccc(NC(=O)CSCc2nc3sc(C)c(C)c3c(=O)[nH]2)c1,"inconclusive: 10 µM [inhibitor, partial curve, poor fit]"
6,O=C1C(Cl)=C(NCc2cccnc2)C(=O)c2ccccc21,"inconclusive: 5.62 µM [inhibitor, partial curve]"
7,CCCC(=O)N(c1ccc(OC)cc1)C1C=CS(=O)(=O)C1 (stereo unspecified),"inconclusive: 1.12 µM [inhibitor, full curve]"
8,O=C(O)CCc1ccc(-c2cccs2)n1-c1ccc(C(=O)O)cc1,"inconclusive: 1.26 µM [inhibitor, full curve, poor fit]"
9,N#Cc1ccc(OCC(=O)Nc2nc(-c3cccnc3)cs2)cc1,"inconclusive: 25.1 µM [inhibitor, partial curve]"
10,Nn1c(SCc2cn3cc(Cl)ccc3n2)nnc1-c1ccncc1,inactive
11,Cc1ccc(-n2ncc(C(=O)Nc3ccc(C)c(F)c3)c2C2CCN(C(=O)OC(C)(C)C)CC2)cc1C,"inconclusive: 0.141 µM [inhibitor, full curve, poor fit]"
12,CON/C=C(\C=Nc1ccc(F)cc1)c1ncc(C(F)(F)F)cc1Cl,"inconclusive: 70.8 µM [inhibitor, partial curve, poor fit]"
13,CCOc1cc(C2c3c(oc4ccccc4c3=O)C(=O)N2Cc2ccc3c(c2)OCO3)ccc1O (stereo unspecified),inactive
14,CC(=O)Nc1ccc(C2=NNC(=Nc3ccc(S(=O)(=O)N4CCOCC4)cc3)SC2)cc1,active: 15.8 µM
15,COc1ccc(C=C2SC(=S)N(CCCN3CCOCC3)C2=O)c(OC)c1,"inconclusive: 39.8 µM [inhibitor, partial curve]"
16,Cc1ccc(-c2cc(C(=O)Nc3ccc4c(c3)OCCO4)c3ccccc3n2)cc1,"inconclusive: 0.251 µM [inhibitor, full curve, poor fit]"
17,CC(C)Oc1ccc(C(=O)N/N=C/c2ccc(-c3ccc(S(=O)(=O)Nc4ncccn4)cc3)o2)cc1,"inconclusive: 31.6 µM [inhibitor, partial curve]"
18,Cc1cc(C)c(NC(=O)Cn2c(=O)n(CCCCC(=O)NCc3ccccc3Cl)c(=O)c3ccccc32)c(C)c1,inactive
19,Cc1c(CCC(=O)O)c(=O)oc2c(C)c3occ(-c4ccc(Cl)cc4)c3cc12,"inconclusive: 31.6 µM [inhibitor, partial curve]"
20,CC(C)Oc1ccc(C(=O)NCCCNC(=O)c2ccccn2)cc1,"inconclusive: 5.01 µM [inhibitor, partial curve, poor fit]"
21,Cc1ccc(C2=N/C(=C\c3cccs3)C(=O)N2Nc2ccccc2)cc1,"inconclusive: 50.1 µM [inhibitor, partial curve, poor fit]"

row,Structure (SMILES),Potency
1,Cc1ccc(C)c(N=Cc2cc3c(cc2[N+](=O)[O-])OCO3)c1,inactive
2,O=C(NC(=S)Nc1cccc(C(F)(F)F)c1)c1ccc2nonc2c1,"inconclusive: 63.1 µM [inhibitor, partial curve, poor fit]"
3,COc1cc(Cl)c(C)cc1NC(=O)c1cn(CC(C)C)c(=O)c2cc(OC)c(OC)cc12,"inconclusive: 0.251 µM [inhibitor, full curve, poor fit]"
4,Cc1c2ccccc2nc2ccccc12,"inconclusive: 25.1 µM [inhibitor, partial curve]"
5,CC(C)Cn1c(=O)c2ccccc2n2c(-c3cccc(Cl)c3)nnc12,"inconclusive: 4.47 µM [inhibitor, single point]"
6,CCN(CC)C(=O)CC(c1ccc(N(C)C)cc1)c1c(OC)cc(OC)c2c(-c3ccccc3)cc(=O)oc12 (stereo unspecified),"inconclusive: 2.51 µM [inhibitor, full curve]"
7,COc1ccc(C(=O)Nc2ccc3nc4n(c(=O)c3c2)CCCCC4)cc1OC,"inconclusive: 39.8 µM [inhibitor, partial curve, poor fit]"
8,Cc1cc(C(=O)CSc2nncs2)c(C)n1-c1ccc2c(c1)OCO2,"inconclusive: 1.26 µM [inhibitor, partial curve]"
9,Cc1cc(NS(=O)(=O)c2ccc(NC(=O)COc3ccc(Br)cc3C)cc2)no1,inactive
10,CCOC(=O)C1CCCN(C(=O)c2cccc3ccccc23)C1 (stereo unspecified),"inconclusive: 31.6 µM [inhibitor, partial curve]"
11,CCOC(=O)c1cc(-c2ccccc2C)nn1Cc1cc(C)no1,"inconclusive: 50.1 µM [inhibitor, partial curve, poor fit]"
12,CCOC(=O)Cc1csc(NC(=O)c2ccc(NC(C)=O)cc2)n1,inactive
13,COc1ccc(C2=CC(=O)CC(c3ccc(F)cc3)C2)cn1 (stereo unspecified),"inconclusive: 50.1 µM [inhibitor, partial curve, poor fit]"
14,CCC(C(=O)Nc1cccc(-c2cn3cccnc3n2)c1)c1ccccc1 (stereo unspecified),"inconclusive: 3.16 µM [inhibitor, partial curve]"
15,Cc1ccc(CC2CC(=O)N(Cc3ccco3)C2=O)cc1 (stereo unspecified),inactive
16,C=CCC[C@@H](Cc1ccc(F)cc1)C(=O)OC[C@H](C)NC(=O)[C@H](CC=C)CC(=O)N(CCO)Cc1ccccc1,"inconclusive: 10 µM [inhibitor, partial curve, poor fit]"
17,CC1=C/C(=C\c2ccc(Br)o2)C(=O)O1,inactive
18,CN(N=Nc1ccc([N+](=O)[O-])cc1)c1ccccc1,"inconclusive: 7.08 µM [inhibitor, partial curve, poor fit]"
19,COc1cc(/C=C2\C(=O)ON=C2c2ccccc2)cc(OC)c1OC,inactive
20,Cc1c(CCC(=O)O)c(=O)oc2cc3occ(-c4ccc(Br)cc4)c3cc12,"inconclusive: 39.8 µM [inhibitor, partial curve]"
21,COc1cc(NC(=O)c2noc3c2CCc2ccccc2-3)cc(OC)c1OC,"inconclusive: 0.562 µM [inhibitor, full curve, poor fit]"

# Exported tab-delimited: entries from further up.
row	Structure (SMILES)	Potency
3	CCS(=O)(=O)Nc1cccc(C2=NN(S(=O)(=O)c3ccccc3)C(c3ccco3)C2)c1 (stereo unspecified)	inactive
4	Cc1cc2cc(C)c(SCC(=O)NCc3ccco3)nc2cc1C	inconclusive: 50.1 µM [inhibitor, partial curve, poor fit]

# (continued)

row,Structure (SMILES),Potency
1,Cc1cccc(-c2nc3c(C#N)c[nH]n3c2NC2CCCCC2)c1,"inconclusive: 2.51 µM [inhibitor, partial curve]"
2,CCCN(C(=O)c1cc2c(Cl)nc3ccccc3c2s1)c1cccc(C)c1,"inconclusive: 5.62 µM [inhibitor, full curve, poor fit]"
3,CCOC(=O)C1=C(CSc2nc(CC)c(C)cc2C#N)OC(N)=C(C#N)C1c1ccc(OC)cc1 (stereo unspecified),"inconclusive: 44.7 µM [inhibitor, partial curve, poor fit]"
4,COc1ccc(C(=O)Nc2ccc3c(c2)OCO3)cc1OC,"inconclusive: 112 µM [inhibitor, partial curve]"
5,Cc1ccc(CNC(=O)C2CC(c3ccccc3[N+](=O)[O-])=NO2)cc1 (stereo unspecified),"inconclusive: 50.1 µM [inhibitor, partial curve, poor fit]"
6,Cc1ccc(S(=O)(=O)NCCc2cc3ccc(C)c(C)c3[nH]c2=O)cc1,"inconclusive: 7.94 µM [inhibitor, partial curve, poor fit]"
7,CCCn1c(=O)c(F)cn(Cc2ccc(OC)c([N+](=O)[O-])c2)c1=O,inactive
8,COc1ccc(OC)c(NC(=O)c2csnn2)c1,"inconclusive: 28.2 µM [inhibitor, partial curve]"
9,Cc1cc(C)n(-c2ccc(C(=O)OCC(=O)NCc3ccc(F)cc3)cc2)n1,"inconclusive: 39.8 µM [inhibitor, partial curve, poor fit]"
10,COc1ccc(CNC(=O)c2ccc3c(c2)N(Cc2ccccc2)C(=O)c2ccccc2S3(=O)=O)cc1,"inconclusive: 12.6 µM [inhibitor, partial curve, poor fit]"
11,COc1ccc(-c2cc3nc(C4CCN(C(=O)OC(C)(C)C)CC4)c(C(=O)Nc4cc(Cl)cc(Cl)c4)cn3n2)cc1,inactive
12,CC(C)N(C(=O)[C@H]1C[C@H](CC(=O)NC(C)(C)C)C(=O)N2CCc3c([nH]c4ccc(Cl)cc34)[C@]12C)C(C)C,"inconclusive: 79.4 µM [inhibitor, partial curve, poor fit]"
13,O=C(NC1=C(Nc2ccc(Cl)cc2)C(=O)c2ccccc2C1=O)c1ccccc1,"inconclusive: 39.8 µM [inhibitor, partial curve, poor fit]"
14,COc1cccc(NC(c2nnc(-c3ccccc3)o2)c2ccc(F)cc2Cl)c1 (stereo unspecified),"inconclusive: 20 µM [inhibitor, partial curve]"
15,CN1C[C@@H]2[C@@H]3C(=O)N(C)C(=O)[C@@H]3[C@](Cc3ccccc3)(C1=O)N2C(=O)c1ccc(Cl)cc1,"inconclusive: 44.7 µM [inhibitor, partial curve]"
16,C#CC(C)(CC)NC(=O)Cn1nnc(-c2ccc(OCc3ccccc3Cl)cc2)n1 (stereo unspecified),"inconclusive: 5.62 µM [inhibitor, full curve, poor fit]"
17,CCc1ccc(OCC(=O)N2CC(C(N)=O)Oc3ccccc32)cc1 (stereo unspecified),"inconclusive: 7.94 µM [inhibitor, single point]"
18,O=C1C(Cc2ccccc2)Nc2ncnc(N3CCc4ccccc4C3)c2N1Cc1ccccc1 (stereo unspecified),"inconclusive: 70.8 µM [inhibitor, partial curve, poor fit]"
19,Cc1nn(-c2ccccn2)c(N)c1N=O,inactive
